Measured data: PubChem BioAssay AID1259405 (NCATS, 2018)
The deposit covers about 50,000 reagents; shown is a random part of them. About 4,000 of them (8%) count as active. 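Mouse siRNA library applied to hamster cells; one well for each siRNA.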 Reagents against one gene are numbered here. No sequences are given here.

Assay: 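Knock-downs that lift recombinant protein yield in hamster ovary cells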 (primary screen)
Cell system: Chinese hamster CHO-K1 ovary cells with stable secreted eGFP expression
Reagent: single siRNA against mouse genes, 0.8 pmol siRNA per well (2 µl of 400 nM stock)
Timing: 3 days
Measured: 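Percent of the per-plate non-targeting control median for intracellular GFP per well by laser scanning cytometry and for cell viability by ATP luminescence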
Scale: GFP, % of control: higher = more GFP per well, higher productivity; viability (ATP), % of control: higher = more viable cells (more ATP)
Rule for the call: 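a knock-down is called active if GFP reaches 120% or more of non-targeting control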

Depletion of Mob1a #1 gave: GFP, % of control 96.2; viability (ATP), % of control 78; inactive. Knock-down of Mob1a #2 came out at: GFP, % of control 79.4; viability (ATP), % of control 68.2; inactive. Against Fgf2 #1, the values are GFP, % of control 92.5; viability (ATP), % of control 65.8; inactive. After knock-down of Fgf2 #2, the screen gave GFP, % of control 118; viability (ATP), % of control 72.1; inactive. For Fgf2 #3 the deposit lists GFP, % of control 95.9; viability (ATP), % of control 107; inactive. Racgap1 #1 scored GFP, % of control 95.1; viability (ATP), % of control 71.2; inactive.

After knock-down of Racgap1 #2, the record shows GFP, % of control 183; viability (ATP), % of control 89.5; active. Depletion of Racgap1 #3 came out at: GFP, % of control 67; viability (ATP), % of control 103; inactive. Knock-down of 4930578I06Rik #1 resulted in: GFP, % of control 80.4; viability (ATP), % of control 76.8; inactive. With knock-down of 4930578I06Rik #2 the results were GFP, % of control 77.2; viability (ATP), % of control 51.9; inactive. After knock-down of 4930578I06Rik #3, the screen gave GFP, % of control 56.6; viability (ATP), % of control 54.5; inactive. With knock-down of Arid3c #1, the screen gave GFP, % of control 78.2; viability (ATP), % of control 98.6; inactive.

Against Arid3c #2, the values are GFP, % of control 77.7; viability (ATP), % of control 73.6; inactive. Depletion of Arid3c #3 gave: GFP, % of control 64.4; viability (ATP), % of control 77.9; inactive. For Or13n4 #1 the deposit lists GFP, % of control 80.8; viability (ATP), % of control 81.3; inactive. After knock-down of Or13n4 #2, the screen gave GFP, % of control 72.9; viability (ATP), % of control 70.3; inactive. Or13n4 #3 showed GFP, % of control 73.4; viability (ATP), % of control 77.2; inactive. Silencing of B9d1 #1 resulted in: GFP, % of control 47.4; viability (ATP), % of control 55.1; inactive.

B9d1 #2 showed GFP, % of control 73.3; viability (ATP), % of control 84.7; inactive. Silencing of B9d1 #3 gave: GFP, % of control 86.3; viability (ATP), % of control 38.1; inactive. Against Rab13 #1, the entry reads GFP, % of control 173; viability (ATP), % of control 144; active. After knock-down of Rab13 #2, the record shows GFP, % of control 87.4; viability (ATP), % of control 85.8; inactive. Silencing of Rab13 #3 resulted in: GFP, % of control 59.6; viability (ATP), % of control 91.2; inactive. Against Rps17 #1, the values are GFP, % of control 87.9; viability (ATP), % of control 91.3; inactive.

Rps17 #2 scored GFP, % of control 46.2; viability (ATP), % of control 50.6; inactive. With knock-down of Rps17 #3, the screen gave GFP, % of control 55; viability (ATP), % of control 44.7; inactive. Knock-down of Atg3 #1 gave: GFP, % of control 70.1; viability (ATP), % of control 61.9; inactive. Atg3 #2 gave GFP, % of control 32.7; viability (ATP), % of control 33.7; inactive. With knock-down of Atg3 #3 the results were GFP, % of control 58.5; viability (ATP), % of control 67; inactive. Gpx8 #1 gave GFP, % of control 98.4; viability (ATP), % of control 69.8; inactive.

Against Gpx8 #2, the entry reads GFP, % of control 78.1; viability (ATP), % of control 68.9; inactive. Depletion of Gpx8 #3 gave: GFP, % of control 61.7; viability (ATP), % of control 80.5; inactive. Silencing of Nop56 #1 gave: GFP, % of control 104; viability (ATP), % of control 86.5; inactive. Depletion of Nop56 #2 came out at: GFP, % of control 91.8; viability (ATP), % of control 96.3; inactive. Against Lamc1 #1 the deposit lists GFP, % of control 88.8; viability (ATP), % of control 89.3; inactive. After knock-down of Lamc1 #2 the results were GFP, % of control 60.2; viability (ATP), % of control 117; inactive.

Mypn #1 gave GFP, % of control 78.7; viability (ATP), % of control 65.6; inactive. Depletion of Mypn #2 resulted in: GFP, % of control 81.5; viability (ATP), % of control 86.4; inactive. Knock-down of Mypn #3 came out at: GFP, % of control 44.2; viability (ATP), % of control 60.5; inactive. Pcolce #1 scored GFP, % of control 65.4; viability (ATP), % of control 65.3; inactive. For Pcolce #2 the deposit lists GFP, % of control 84.8; viability (ATP), % of control 86.4; inactive. After knock-down of Pcolce #3, the record shows GFP, % of control 111; viability (ATP), % of control 65.2; inactive.

Called active, of those listed so far:
Racgap1 #2 → GFP, % of control = 183; viability (ATP), % of control = 89.5; Call = active
Rab13 #1 → GFP, % of control = 173; viability (ATP), % of control = 144; Call = active
